Data source: PubChem BioAssay AID1259308 (NCATS, 2017)

Aim: 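Knock-downs that increase output of a recombinant reporter protein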 (primary screen)
Cell system: human HEK293 embryonic kidney cells stably expressing firefly luciferase (HEK-CMV-Luc2-Hygro)
Reagent: single siRNA against human genes, 0.8 pmol siRNA per well
Duration: 72 h
Measurement: 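Reporter luminescence and viable-cell signal on separate replicate plates, given as percent of non-targeting control and median/MAD z-scores, plus per-cell luciferase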
Direction: total luciferase, z-score: higher = more reporter protein produced
Rule for the call: 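An siRNA counts as active if its total luciferase robust z-score exceeds 3; genes with two or more such siRNAs out of three were retested with fresh siRNAs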
Calls: active = raised luciferase; inactive = no rise
In all, the deposit lists about 59,000 reagents; this is an unselected part. Of all reagents, about 1,510 (2.6%) got an active call. 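Calls use total luciferase alone and ignore viability, so some active siRNAs may act by altering cell number.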 Reagents against one gene are numbered here. Further read-outs or replicates are left out here. No sequences are given here.

With knock-down of POU2AF2 #1, the screen gave total luciferase, z-score 0.155; inactive.
POU2AF2 #2 gave total luciferase, z-score 0.665; inactive.
For POU2AF2 #3, the values are total luciferase, z-score -1.05; inactive.
Knock-down of AP4S1 #1 gave: total luciferase, z-score 2.18; inactive.
Silencing of AP4S1 #2 resulted in: total luciferase, z-score -0.392; inactive.
AP4S1 #3 showed total luciferase, z-score 2.64; inactive.
ACTN4 #1 scored total luciferase, z-score 2.19; inactive.
After knock-down of ACTN4 #2, the record shows total luciferase, z-score -0.458; inactive.
For ACTN4 #3, the values are total luciferase, z-score -0.0285; inactive.
After knock-down of IL24 #1, the screen gave total luciferase, z-score 0.603; inactive.
Knock-down of IL24 #2 gave: total luciferase, z-score -1.43; inactive.
For IL24 #3, the entry reads total luciferase, z-score 2.73; inactive.
Silencing of TCERG1 #1 came out at: total luciferase, z-score 2.2; inactive.
TCERG1 #2 showed total luciferase, z-score 2.67; inactive.
TCERG1 #3 scored total luciferase, z-score 3.08; active.
Against LINC00693 #1 the deposit lists total luciferase, z-score -0.402; inactive.
LINC00693 #2 scored total luciferase, z-score 1.36; inactive.
Against LINC00693 #3, the entry reads total luciferase, z-score -0.52; inactive.
With knock-down of DCAF4L2 #1, the record shows total luciferase, z-score 0.374; inactive.
Silencing of DCAF4L2 #2 came out at: total luciferase, z-score 1.97; inactive.
Depletion of DCAF4L2 #3 came out at: total luciferase, z-score -0.401; inactive.

In a second layout: 2 of the entries above.
{"target gene":"POU2AF2","siRNA no.":3,"total luciferase, z-score":-1.05,"call":"inactive"}
{"target gene":"AP4S1","siRNA no.":1,"total luciferase, z-score":2.18,"call":"inactive"}

The list goes on.
Against MEX3D #1, the entry reads total luciferase, z-score -3.56; inactive.
For MEX3D #2, the entry reads total luciferase, z-score -0.0377; inactive.
For MEX3D #3, the entry reads total luciferase, z-score -0.117; inactive.
DGKG #1 showed total luciferase, z-score -1.1; inactive.
With knock-down of DGKG #2, the screen gave total luciferase, z-score 0.45; inactive.
For DGKG #3 the deposit lists total luciferase, z-score 0; inactive.
ZNF776 #1 gave total luciferase, z-score -0.141; inactive.
ZNF776 #2 gave total luciferase, z-score 2.94; inactive.
With knock-down of ZNF776 #3 the results were total luciferase, z-score 1.12; inactive.
With knock-down of SPRTN #1, the record shows total luciferase, z-score -1.24; inactive.
Knock-down of SPRTN #2 gave: total luciferase, z-score 0.0806; inactive.
For SPRTN #3 the deposit lists total luciferase, z-score 3.45; active.
